According to the RNAGym collection of RNA variant scans (doi:10.1126/science.aae0568):
Variants at the floor of the assay are shown more often than the library holds them.

B1: tRNA (parent)
chain: GUUCCGUUGGCGUAAUGGUAACGCGUCUCCCUCCUAAGGAGAAGACUGCGGGUUCGAGUCCCGUACGGAACG

Variants of: B1
Experiment: yeast fitness relative to wild type (ratio to wild type); higher = fitter; tRNA-Arg(CCU), competitive growth, 37 C, YPD
Method in brief: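 Genotype frequency changes were the basis for Darwinian fitness relative to wild type. The frequencies came from 100-nucleotide paired-end sequencing of gene amplicons from the start population and each end population of pooled yeast strains with tRNA-Arg(CCU) gene variants at the native locus. Competition ran in YPD at 37°C for 24 hours in six replicates, genotypes needed ≥ 100 starting reads, and estimates < 0.5 were set to 0.5.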

Row | Variant | yeast fitness
1 | A21U C34A G50C G67A | ≤ 0.5
2 | C4G U35G A42C | ≤ 0.5
3 | C27G C49U C55G | ≤ 0.5
4 | U16C C34U A36U C66U A69U | ≤ 0.5
5 | A14C A21G C22U C33G G41C G56C G58A G63C A65U | ≤ 0.5
6 | A20U C34A G58C C62A | ≤ 0.5
7 | U8C G39A U53A | ≤ 0.5
8 | G10A U16A C60A | ≤ 0.5
9 | U16A C22G G48A | 0.994
10 | G39C G63A A69C | ≤ 0.5
11 | A14U C55A A69C | ≤ 0.5
12 | U7A A14G C31U G39C A40C A45U G68C | 0.555
13 | G6A A14C A37U | 0.689
14 | A15U A20C G48C U53A C61U | ≤ 0.5
15 | C22U U28C G67C | ≤ 0.5
16 | A15G A37U A43C | 0.518
17 | U3C U35C A42G C49A | ≤ 0.5
18 | C4U G23C | 0.716
19 | C5G G12A C49G G68C | ≤ 0.5
20 | G38C G44C C46A | 0.814
21 | A45C G52A U53C G58A C62G | ≤ 0.5
22 | G17C G18A C22A C31G C55G G68A | ≤ 0.5
23 | C11U C34U G38C C55A | ≤ 0.5
24 | G12C G18C C55A A69C | ≤ 0.5

Row | Variant | yeast fitness
25 | A15U U47C G63A | ≤ 0.5
26 | C4G C34U G52C G68A | ≤ 0.5
27 | G10A G17C C29G C49G | ≤ 0.5
28 | C5A G9C C46U C61G C66U A69U | ≤ 0.5
29 | A15C C31G U64C | ≤ 0.5
30 | C11U A14U C24G A57U | ≤ 0.5
31 | C11G C34U C55U C66U | ≤ 0.5
32 | C22A A65G C66G G68C | ≤ 0.5
33 | C4U A20U G25C C60G | ≤ 0.5
34 | A43U G56C C61A | ≤ 0.5
35 | G18C C22G C31U U59A G63A | ≤ 0.5
36 | C5A G17C A43U | 0.543
37 | G9C U26G C55A | ≤ 0.5
38 | G18C C31A G58A C61G | ≤ 0.5
39 | G18A A21U A37U A42U C46A G58C U64A | ≤ 0.5
40 | U2A A43G C60A | ≤ 0.5
41 | G10A C27A A36U A37U G48C | ≤ 0.5
42 | U8G U26G A42U | ≤ 0.5
43 | U47C G50A G68C | 0.539
44 | U2G A14C A57U | ≤ 0.5
45 | G6A C11U G23A C46A C55A | ≤ 0.5
46 | G10C G12A U13C G63A | ≤ 0.5
47 | C31A G50C A57U | ≤ 0.5
48 | U3C C24A C27U U54C U59C | ≤ 0.5

Row | Variant | yeast fitness
49 | U8A U47A G48A A65C | ≤ 0.5
50 | C5U C34A A45C C46U | ≤ 0.5
51 | A20U C22G A57G | ≤ 0.5
52 | U13A C34G G50A C60G C61U | ≤ 0.5
53 | U3A C29U C31A A40C C66U | ≤ 0.5
54 | G17A C22G C33U | ≤ 0.5
55 | A15C G17C C31A G44C G67C A69G | ≤ 0.5
56 | C5U A21U G56C | ≤ 0.5
57 | G10A C27U C33U A43U U54C | ≤ 0.5
58 | U16A C22U C66U | ≤ 0.5
59 | A20G C24G C27U C66A | ≤ 0.5
60 | C27G A45C C55U | ≤ 0.5
61 | C5A G17C A57G | ≤ 0.5
62 | C11U A21G C24A G52A C60A | ≤ 0.5
63 | U54G G63U | ≤ 0.5
64 | U2G C11G U54C | ≤ 0.5
65 | U28C C46A U64A | ≤ 0.5
66 | C11G A20G C49G | ≤ 0.5
67 | U2A G52A C61A | ≤ 0.5
68 | U2G C4A A37U C62A | ≤ 0.5
69 | G12A U13C U16A U19G G23A G58A G68A | ≤ 0.5
70 | G10C C22U C61U | 0.518
71 | A20C C34G | 0.527
72 | A14C C22G U26G A36U A45U C61A | ≤ 0.5

Row | Variant | yeast fitness
73 | G41A A70U | 0.977
74 | C5G A45G C46A U64G C66U | ≤ 0.5
75 | U2C A20G C22G C24A A69G | ≤ 0.5
76 | G18C G25C U28G A42G C49U A57U G63A | ≤ 0.5
77 | A15C C24A | ≤ 0.5
78 | U2C A40C G52C | 0.528
79 | A20G G41A C62G | ≤ 0.5
80 | C5A C62G C66A | ≤ 0.5
81 | U13A C22A A36U G68C | ≤ 0.5
82 | G12A C22U C31G G48C U64A C66U G68C | ≤ 0.5
83 | U3C G9A U32G C34U A57G | ≤ 0.5
84 | C4U C34A A69G | ≤ 0.5
85 | C24U U26A U28G U47C U54G | ≤ 0.5
86 | U7G G51A C55G G56C | ≤ 0.5
87 | G12C G18C C27G G63C | ≤ 0.5
88 | U32A C60G G68U | ≤ 0.5
89 | A20U C29A | 0.797
90 | C4G C5G C33G C49G | ≤ 0.5
91 | U13G U28A C30A | ≤ 0.5
92 | G6C C30A A45U C55U | ≤ 0.5
93 | C5A G41A C55A | ≤ 0.5
94 | U3A G23C C46U | ≤ 0.5
95 | U2A G12C A36C | ≤ 0.5
96 | C4U U13A A14U C29U A37G G51C | ≤ 0.5

Row | Variant | yeast fitness
97 | C5U U19A G25C A43U | 0.758
98 | G17C C49G | 0.743
99 | U2G U47G G58C | ≤ 0.5
100 | C4A A40C C55G A65C | ≤ 0.5
101 | C4A C27G C46A U47A | ≤ 0.5
102 | U28C C49U C55G | ≤ 0.5
103 | C5U A20C C29A C62A A70C | ≤ 0.5
104 | C27G U54C A69G | 0.625
105 | U8A C29G C34A A36G A43C U53C | ≤ 0.5
106 | G18C A37U G38C | ≤ 0.5
107 | A21U G67C | 0.645
108 | C11U G17C C24G C29G C66U | ≤ 0.5
109 | G12A A21U G56C C61A A70C | ≤ 0.5
110 | C11G U35G C55A G56C C60G | ≤ 0.5
111 | U35G A43G | 0.725
112 | G9A G51A A57U U59C | ≤ 0.5
113 | A14G C46U G52C | ≤ 0.5
114 | G12C C29U G38C | ≤ 0.5
115 | G10C C24U C29G G56A A65G C66A G68C | ≤ 0.5
116 | A20G C34A A36G | ≤ 0.5
117 | U2G G9C C55A | ≤ 0.5
118 | C5A U8C | 0.929
119 | U8A G12A C33U A65U | 0.562
120 | C31A G48A C66U | 0.646

Row | Variant | yeast fitness
121 | G6A G18C C30G C34A A37C | ≤ 0.5
122 | A15G U28A G39A G48A C61G C66G | ≤ 0.5
123 | U8C U19A A40G C55G A65C | ≤ 0.5
124 | C5G G9C G48C C49U | ≤ 0.5
125 | C4U C24U U47C G56C | ≤ 0.5
126 | U2A C24U U47C C60U U64C | ≤ 0.5
127 | G25A C34G C49U G63C U64C | ≤ 0.5
128 | U3G C11U U19C A20U A42C A65G | ≤ 0.5
129 | U54A A57C | 0.555
130 | C4G G9C C22A C49G U53A | ≤ 0.5
131 | C27U U35A G50C G51C | ≤ 0.5
132 | U3C C11U G17A | ≤ 0.5
133 | U19C A43U G48C U54C C61G | ≤ 0.5
134 | C4G G17A U26C C61A | ≤ 0.5
135 | U3C G12A A21G C46G G50A | ≤ 0.5
136 | C5A A15C C27U C30U U32G U35A A37C G50U A57U | ≤ 0.5
137 | C22G C24U G39A | ≤ 0.5
138 | A14C C33A C55G C60G | ≤ 0.5
139 | G6A C27A C30U G41C A43U C49A G67U | ≤ 0.5
140 | C4U C46A G52A | ≤ 0.5
141 | C4U C31U C55G U59A | 0.546
142 | G6A C11G A15G U26A U32A G38A A40C | ≤ 0.5
143 | U32A G38C U47A | ≤ 0.5
144 | G6A U16C G25C C27G C30G G38C | ≤ 0.5

Row | Variant | yeast fitness
145 | G12A A15U C24U G44C G52C A69U | ≤ 0.5
146 | G6A G18A G23C C24G C46G | ≤ 0.5
147 | U7A A21C C33A A45U A57U | ≤ 0.5
148 | C33G A42C A65C | ≤ 0.5
149 | U16A C33G G58A | ≤ 0.5
150 | U2G A65U C66G | ≤ 0.5
151 | U47G G56A A65G C66U | ≤ 0.5
152 | G41C G48C A69U | 0.558
153 | C11G A36G G50C | ≤ 0.5
154 | C24U G67C | 0.698
155 | C24G U35G | ≤ 0.5
156 | A15G A36U C62G | ≤ 0.5
157 | G17C G23A G25C C29G A36U G39A C46U C55U | ≤ 0.5
158 | C11U C27G C46G C62A | ≤ 0.5
159 | C4U G9C A20U A57G C61U A69U | ≤ 0.5
160 | C22U G25C C31U | 0.625
161 | G10A G39C A57C | ≤ 0.5
162 | C4G C29G A36C G39C U53A | ≤ 0.5
163 | U28G A36U A43U | ≤ 0.5
164 | A21G A57C | 0.709
165 | U8G C33G U54A U59A G67A | ≤ 0.5
166 | U7C C30U C61A | ≤ 0.5
167 | G12C U19A C27G A65C | 0.557
